The source of these data is paper PMC4180072.

For series [1], the target named is T1, SMAD4 (HPNE nuclear extract) (Homo sapiens (HPNE cells)) (UniProt Q13485).
T1 sequence (looked up, limits assumed): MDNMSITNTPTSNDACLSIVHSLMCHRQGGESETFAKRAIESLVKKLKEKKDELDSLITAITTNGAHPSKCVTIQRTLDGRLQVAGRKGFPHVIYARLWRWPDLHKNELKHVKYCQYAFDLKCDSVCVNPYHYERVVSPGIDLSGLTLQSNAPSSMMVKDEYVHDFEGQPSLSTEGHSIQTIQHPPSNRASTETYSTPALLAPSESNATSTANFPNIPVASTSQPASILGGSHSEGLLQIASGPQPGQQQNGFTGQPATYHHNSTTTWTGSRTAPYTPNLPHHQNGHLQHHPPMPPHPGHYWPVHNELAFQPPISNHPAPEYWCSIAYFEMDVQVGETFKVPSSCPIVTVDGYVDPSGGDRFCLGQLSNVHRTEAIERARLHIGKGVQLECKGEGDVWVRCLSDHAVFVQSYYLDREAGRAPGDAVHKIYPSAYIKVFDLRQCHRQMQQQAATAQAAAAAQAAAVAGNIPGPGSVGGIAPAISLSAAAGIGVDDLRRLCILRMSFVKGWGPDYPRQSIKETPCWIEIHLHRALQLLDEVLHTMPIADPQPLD
As to the kind of experiment: competition with a labelled probe. To be noted: EMSA with nuclear extracts, 25-fold competitor, pH and temperature not stated, protein in an extract.

In series [2] the target is T2, SMAD4 (PANC-1 nuclear extract) (Homo sapiens (PANC-1 cells)) (UniProt Q13485).
T2 sequence (looked up, limits assumed): T1 sequence (looked up, limits assumed)
In words: competition with a labelled probe. The note with it: mutant competitor vs oligo 2 probe; EMSA with nuclear extracts; 25-fold competitor; pH and temperature not stated; protein in an extract.

The target of series [3] is T1, SMAD4 (HPNE nuclear extract) (Homo sapiens (HPNE cells)). In words: EMSA. To be noted: band inhibited by anti-SMAD4, quenched by 25-fold WT oligo; EMSA with nuclear extracts; 25-fold competitor; pH and temperature not stated; protein in an ….
For series [4], the target named is T2, SMAD4 (PANC-1 nuclear extract) (Homo sapiens (PANC-1 cells)). In words: EMSA. To be noted: band inhibited by anti-SMAD4, quenched by WT oligo 2; EMSA with nuclear extracts; 25-fold competitor; pH and temperature not stated; protein in an extract.

For at least one entry, the source does not settle the construct or the ends of the probe. At least one result comes from cells or an extract, where the contact may be indirect. For part of these data: Negatives hold for the conditions tested. Protein sequences can lack the tags named with them.

Regarding “TTCCTGTGAATACTTTAAAAAGACTT (double strand) [CDH2 SBE oligo 4 mutant]”, the binding result in series [1] (25-fold mutant competitor vs oligo 4 probe) is on record as “no binding”.
With “TCTTAAAACAAGTAATGCTTTGAGCA (double strand) [CDH2 SBE oligo 2 mutant]”, the binding result in series [1] (25-fold mutant competitor vs oligo 2 probe) and in series [2] was “no binding” each time.
As for “TTCCTGTGAATACTTTGTCTAGACTT (double strand) [CDH2 SBE oligo 4 WT]”, the binding result in series [3] is “binds”.
For “CGAGCGCCTCAGACAACAATAGCTAG (double strand) [CDH2 SBE oligo 2 WT]”, the binding result in series [3] and in series [4] was “binds” throughout.
